{
  "source": "patent US4748116A",
  "about": "“Peptide substrates for determination of protease activity” (KabiVitrum AB, priority 1980, dated 1988)",
  "assay": "Test 2: chemiluminescence appliance response of isoluminol in presence of intact substrate",
  "data": [
    {"molecule": "Nc1ccc2c(=O)[nH][nH]c(=O)c2c1", "note": "[Isoluminol]", "values": [
      {"measurement": "relation of appliance response to amount of isoluminol", "setting": "10^-5 -10^-10 M isoluminol plus 10^-4 or 10^-5 M substrate XXI", "value": "rectilinear proportion"},
      {"measurement": "appliance response of isoluminol relative to that of the substrate at the corresponding concentration", "setting": "substrate XXI, NaOH/hemine/H2O2 oxidation", "value": "2,500 times"}
    ]}
  ]
}
